From PMC11661440
Results are given in words; binding and its absence hold for the method and conditions named.

Protein sequences, listed by entry. Tags and fused reporters are not part of them. Lines headed by an entry give the natural chain unless they say otherwise; changes in a name come on top.
UniProt Q9UKE5: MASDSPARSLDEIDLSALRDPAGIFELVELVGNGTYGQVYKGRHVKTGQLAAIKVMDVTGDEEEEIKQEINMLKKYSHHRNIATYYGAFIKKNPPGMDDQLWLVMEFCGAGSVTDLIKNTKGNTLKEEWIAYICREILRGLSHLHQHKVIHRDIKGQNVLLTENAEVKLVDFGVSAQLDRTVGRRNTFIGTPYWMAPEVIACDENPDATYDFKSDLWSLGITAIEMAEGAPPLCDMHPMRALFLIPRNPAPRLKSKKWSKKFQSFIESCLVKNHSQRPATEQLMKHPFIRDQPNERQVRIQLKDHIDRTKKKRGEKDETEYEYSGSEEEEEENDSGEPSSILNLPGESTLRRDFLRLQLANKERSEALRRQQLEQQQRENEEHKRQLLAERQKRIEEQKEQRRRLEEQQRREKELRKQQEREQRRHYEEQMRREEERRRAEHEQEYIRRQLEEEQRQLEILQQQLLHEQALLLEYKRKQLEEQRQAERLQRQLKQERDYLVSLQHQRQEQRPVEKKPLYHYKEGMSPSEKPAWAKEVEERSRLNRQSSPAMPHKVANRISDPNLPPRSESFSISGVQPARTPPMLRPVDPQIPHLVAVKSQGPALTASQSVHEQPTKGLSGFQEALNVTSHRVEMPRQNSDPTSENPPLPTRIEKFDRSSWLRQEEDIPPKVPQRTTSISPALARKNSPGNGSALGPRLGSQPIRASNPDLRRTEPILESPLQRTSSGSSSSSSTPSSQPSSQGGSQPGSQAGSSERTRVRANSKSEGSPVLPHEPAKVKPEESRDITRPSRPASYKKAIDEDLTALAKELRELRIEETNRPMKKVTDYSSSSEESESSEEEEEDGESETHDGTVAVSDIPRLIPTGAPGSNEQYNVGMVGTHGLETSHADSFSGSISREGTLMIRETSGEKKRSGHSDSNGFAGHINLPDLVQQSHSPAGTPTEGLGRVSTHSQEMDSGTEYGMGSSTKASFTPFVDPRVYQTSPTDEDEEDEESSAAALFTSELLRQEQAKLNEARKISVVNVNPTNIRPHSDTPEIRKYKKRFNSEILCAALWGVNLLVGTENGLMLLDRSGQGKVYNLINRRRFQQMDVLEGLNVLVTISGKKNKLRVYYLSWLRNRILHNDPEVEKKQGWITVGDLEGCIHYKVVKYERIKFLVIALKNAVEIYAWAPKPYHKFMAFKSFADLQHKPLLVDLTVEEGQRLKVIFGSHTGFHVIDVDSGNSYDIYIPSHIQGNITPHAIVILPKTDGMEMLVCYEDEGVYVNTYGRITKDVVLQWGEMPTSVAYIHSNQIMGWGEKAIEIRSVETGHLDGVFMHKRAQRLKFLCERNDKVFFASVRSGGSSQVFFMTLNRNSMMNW

Columns and labels:
[1] = molecular target: Recombinant GST-tagged TNIK kinase domain (human amino acids 1 to 367) (human) (UniProt Q9UKE5); assay: condition: only reducing SDS-PAGE after boiling with DTT; cross-linking; disulfide-linked species of purified GST-TNIK KD; oxidised in vitro with 50 uM H2O2 at 30°C for 15 min or without H2O2 (air oxidation); nonreducing (-DTT) or reducing (+DTT) SDS-PAGE and Western blotting; both purified
YFP-TNIK C202S (human) = YFP-TNIK C202S (human) (UniProt Q9UKE5); assay: cross-linking; disulfide-linked species of YFP-TNIK immunoprecipitated from HEK293T lysate on GFP-Trap beads (washed with 500 mM NaCl); oxidised with 0, 0.2, 0.5 and 1 mM H2O2 at 30°C for 15 min; nonreducing SDS-PAGE and Western blotting; both purified

Substance | binding [1] | binding (YFP-TNIK C202S (human))
Recombinant GST-tagged TNIK kinase domain (human amino acids 1 to 367) (from UniProt Q9UKE5 1-367) (domain or fragment) | no binding | 
YFP-TNIK C202S (from UniProt Q9UKE5 1-1360) |  | no binding
